Laboratory results: PMC10043188
Read-outs that look alike come from different tables or passages of the source. No constants are given. Whether binding was seen depends on the method and setting. In cells and extracts the contact can be indirect. Some entries that bind do so weakly or less than the wild type. Sequences can lack the tags named with a protein.

Amino acid sequences for entries named in this document (tags omitted). A change or cut given only in a name is not applied to a line headed by its entry. Chains listed by the source or under a name are the forms on record and can include a tag or linker.
UniProt P11275: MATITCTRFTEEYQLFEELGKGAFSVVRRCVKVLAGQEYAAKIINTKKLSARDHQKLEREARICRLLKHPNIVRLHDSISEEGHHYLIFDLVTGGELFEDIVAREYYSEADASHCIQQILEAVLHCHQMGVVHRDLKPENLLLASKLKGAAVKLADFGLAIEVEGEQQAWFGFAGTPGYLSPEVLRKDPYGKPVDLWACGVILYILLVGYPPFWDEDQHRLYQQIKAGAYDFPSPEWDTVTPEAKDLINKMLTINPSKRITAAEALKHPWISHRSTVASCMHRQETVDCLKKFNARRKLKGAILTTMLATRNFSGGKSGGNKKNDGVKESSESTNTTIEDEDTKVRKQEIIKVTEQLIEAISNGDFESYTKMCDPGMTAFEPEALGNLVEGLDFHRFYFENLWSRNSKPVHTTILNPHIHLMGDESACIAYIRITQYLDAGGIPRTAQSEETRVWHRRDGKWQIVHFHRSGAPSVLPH
Sarco/endoplasmic reticulum Ca2+-ATPase SERCA2A (P16615-2, form named): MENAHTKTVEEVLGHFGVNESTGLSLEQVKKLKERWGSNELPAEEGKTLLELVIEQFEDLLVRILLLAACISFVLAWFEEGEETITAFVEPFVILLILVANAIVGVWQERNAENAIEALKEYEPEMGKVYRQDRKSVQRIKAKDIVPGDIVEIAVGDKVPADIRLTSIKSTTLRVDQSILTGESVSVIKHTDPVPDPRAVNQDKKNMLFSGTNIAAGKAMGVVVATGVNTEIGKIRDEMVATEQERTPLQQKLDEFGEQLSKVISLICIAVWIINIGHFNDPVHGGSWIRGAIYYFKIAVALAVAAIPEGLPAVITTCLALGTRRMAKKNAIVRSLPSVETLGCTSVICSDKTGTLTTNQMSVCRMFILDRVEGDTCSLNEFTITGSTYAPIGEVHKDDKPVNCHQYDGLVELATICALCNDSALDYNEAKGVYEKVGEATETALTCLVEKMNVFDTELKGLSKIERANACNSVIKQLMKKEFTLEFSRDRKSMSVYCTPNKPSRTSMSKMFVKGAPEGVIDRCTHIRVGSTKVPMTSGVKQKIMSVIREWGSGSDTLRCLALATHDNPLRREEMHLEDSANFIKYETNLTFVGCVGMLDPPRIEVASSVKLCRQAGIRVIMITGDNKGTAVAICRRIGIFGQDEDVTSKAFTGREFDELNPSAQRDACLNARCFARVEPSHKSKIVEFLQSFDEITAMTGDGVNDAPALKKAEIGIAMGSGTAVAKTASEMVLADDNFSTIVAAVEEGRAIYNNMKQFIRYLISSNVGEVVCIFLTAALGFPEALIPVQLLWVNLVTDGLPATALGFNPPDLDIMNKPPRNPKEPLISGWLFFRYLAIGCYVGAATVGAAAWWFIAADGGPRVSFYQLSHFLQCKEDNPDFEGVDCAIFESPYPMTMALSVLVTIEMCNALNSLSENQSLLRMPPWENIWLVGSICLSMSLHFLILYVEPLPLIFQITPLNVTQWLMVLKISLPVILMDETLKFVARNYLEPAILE
UniProt P08413: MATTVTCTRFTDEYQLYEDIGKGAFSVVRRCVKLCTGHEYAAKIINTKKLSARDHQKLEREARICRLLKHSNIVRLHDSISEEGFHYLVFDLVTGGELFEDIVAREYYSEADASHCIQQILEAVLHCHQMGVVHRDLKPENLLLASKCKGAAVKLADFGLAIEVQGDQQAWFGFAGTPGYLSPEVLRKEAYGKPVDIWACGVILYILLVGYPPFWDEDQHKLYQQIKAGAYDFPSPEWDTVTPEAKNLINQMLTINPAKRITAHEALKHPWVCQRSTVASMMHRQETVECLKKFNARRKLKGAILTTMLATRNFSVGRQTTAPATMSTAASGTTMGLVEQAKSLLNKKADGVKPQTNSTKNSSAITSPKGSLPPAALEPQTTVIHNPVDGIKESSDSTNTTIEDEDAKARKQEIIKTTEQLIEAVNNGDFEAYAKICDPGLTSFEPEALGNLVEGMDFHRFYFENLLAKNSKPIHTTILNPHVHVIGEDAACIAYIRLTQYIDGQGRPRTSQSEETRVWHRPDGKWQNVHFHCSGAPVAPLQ

Tests used:
Experiment in all cases: co-IP; HEK293 cells co-transfected; lysis in Co-IP buffer (20 mM Tris-HCl, 3 mM EDTA, 3 mM EGTA, 150 mM NaCl, 1% Triton X-100, 1 mM DTT, pH 7.4); IP of myc-Arc with mouse anti-myc and GammaBind Sepharose beads overnight at 4°C; blot with anti-GFP and anti-myc
[1] = target: T1, Activity-regulated cytoskeleton-associated protein (Arc), wild type, myc-tagged (UniProt Q9WV31)
T1 sequence: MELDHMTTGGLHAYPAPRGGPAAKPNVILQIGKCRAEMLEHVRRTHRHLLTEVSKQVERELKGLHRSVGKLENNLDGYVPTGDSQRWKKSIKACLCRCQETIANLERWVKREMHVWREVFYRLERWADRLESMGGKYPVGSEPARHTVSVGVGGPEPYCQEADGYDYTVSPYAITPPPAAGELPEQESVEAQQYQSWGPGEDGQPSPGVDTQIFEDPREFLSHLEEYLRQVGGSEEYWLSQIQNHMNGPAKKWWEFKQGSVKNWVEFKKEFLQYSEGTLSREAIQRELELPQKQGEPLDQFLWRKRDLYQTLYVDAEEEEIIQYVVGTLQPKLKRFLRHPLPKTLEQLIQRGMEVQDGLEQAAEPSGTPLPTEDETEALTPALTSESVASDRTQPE

[2] = target: T2, Arc K268R/K269R (ArcKR), myc-tagged (UniProt Q9WV31)
T2 sequence: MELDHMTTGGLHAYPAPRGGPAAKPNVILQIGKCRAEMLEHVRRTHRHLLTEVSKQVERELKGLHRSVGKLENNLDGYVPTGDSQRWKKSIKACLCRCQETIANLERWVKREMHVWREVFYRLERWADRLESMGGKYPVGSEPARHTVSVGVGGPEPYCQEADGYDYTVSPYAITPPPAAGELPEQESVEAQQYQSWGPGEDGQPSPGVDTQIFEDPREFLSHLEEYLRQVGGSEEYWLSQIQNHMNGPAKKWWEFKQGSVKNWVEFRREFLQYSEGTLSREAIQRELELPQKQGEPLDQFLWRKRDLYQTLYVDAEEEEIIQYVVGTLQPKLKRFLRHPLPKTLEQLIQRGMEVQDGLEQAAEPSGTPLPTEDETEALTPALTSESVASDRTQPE

[3] = target: T1, Activity-regulated cytoskeleton-associated protein (Arc), wild type, myc-tagged; remark: listed apart in the source
[4] = target: T2, Arc K268R/K269R (ArcKR), myc-tagged; remark: listed apart in the source

Row | Molecule | binding [1] | binding [2] | binding [3] | binding [4]
1 | CaMKII alpha T286D, GFP-tagged (from UniProt P11275 1-478) (enzyme) | binds | binds | – | –
2 | CaMKII alpha T286A, GFP-tagged (from UniProt P11275 1-478) (enzyme) | binds | binds | – | –
3 | Sarco/endoplasmic reticulum Ca2+-ATPase SERCA2A (from UniProt P16615-2 1-997) (enzyme) | no binding | no binding | – | –
4 | Calcium/calmodulin-dependent protein kinase II beta, GFP-tagged (from UniProt P08413 1-542) (enzyme) | binds | binds | – | –
5 | CaMKII beta T287D, GFP-tagged (from UniProt P08413 1-542) (enzyme) | binds | binds | – | –
6 | Calcium/calmodulin-dependent protein kinase II alpha, GFP-tagged (from UniProt P11275 1-478) (enzyme) | binds | binds | – | –
7 | mVenus-Calnexin (protein, UniProt P27824 21-592) HDGHDDDVIDIEDDLDDVIEEVEDSKPDTTAPPSSPKVTYKAPVPTGEVYFADSFDRGTLSGWILSKAKKDDTDDEIAKYDGKWEVEEMKESKLPGDKGLVLMSRAKHHAISAKLNKPFLFDTKPLIVQYEVNFQNGIECGGAYVKLLSKTPELNLDQFHDKTPYTIMFGPDKCGEDYKLHFIFRHKNPKTGIYEEKHAKRPDADLKTYFTDKKTHLYTLILNPDNSFEILVDQSVVNSGNLLNDMTPPVNPSREIEDPEDRKPEDWDERPKIPDPEAVKPDDWDEDAPAKIPDEEATKPEGWLDDEPEYVPDPDAEKPEDWDEDMDGEWEAPQIANPRCESAPGCGVWQRPVIDNPNYKGKWKPPMIDNPSYQGIWKPRKIPNPDFFEDLEPFRMTPFSAIGLELWSMTSDIFFDNFIICADRRIVDDWANDGWGLKKAADGAAEPGVVGQMIEAAEERPWLWVVYILTVALPVFLVILFCCSGKKQTSGMEYKKTDAPQPDVKEEEEEKEEEKDKGDEEEEGEEKLEEKQKSDAEEDGGTVSQEEEDRKPKAEEDEILNRSPRNRKPRRE | – | – | binds | binds
